PubChem BioAssay AID493014 (National Center for Advancing Translational Sciences (NCATS), 2011)
The list shows a part of the results. These are further read-outs of the screen, such as a control signal, another cell line or another target. No call is given for them. The list favours compounds with an active or inconclusive main result. Words in brackets tell the shape of the fitted curve; partial curves, single points and poor fits give uncertain potencies.

Assay: qHTS Assay to Find Inhibitors of Chronic Active B-Cell Receptor Signaling
Details: ABC-DLBCL IkBa-CBG/CBR reporter, luminescence ratio (green luciferase fused to IkBa over red control in TMD8 lymphoma cells), 4 h
How it was run: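 Cell line TMD8 (human ABC DLBCL), stably expressing tet-inducible CBG68-IkBa fusion and CBR; IMDM/0.5% FBS; cpd up to 46 uM; dox induction, 4 h, 37C/5% CO2; dual luminescence; green/red ratio; MG132 control.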

[1] = measured here: CBR red luminescence, cell number

Compound	AC50 [1]	AC50 (measured here: IkBa-CBG green luminescence)
O=C(Nc1ccc(Br)cc1)c1cc([N+](=O)[O-])cc([N+](=O)[O-])c1	2 µM [rising, full curve, poor fit]	
COc1cc(NC(=O)c2ccc(OC)c([N+](=O)[O-])c2)ccc1NC(=O)c1cccs1	0.00651 µM [rising, full curve, poor fit]	
CN(C)S(=O)(=O)c1cccc(NC(=O)c2ccc(S(=O)(=O)N3CCCC3)cc2)c1	16.4 µM [falling, single point]	
CN1CCC(NC(=O)Nc2ccc(Br)cc2)CC1	2.82 µM [rising, full curve]	
O=S(=O)(c1cccs1)N1CCN(Cc2nc3ccccc3s2)CC1	29.1 µM [rising, single point]	
O=C(Nc1ccc(S(=O)(=O)N2CCOCC2)cc1)c1cccc([N+](=O)[O-])c1	2.82 µM [rising, full curve, poor fit]	
Fc1cc(F)c2nc(N3CCCCC3)sc2c1	15.8 µM [rising, partial curve, poor fit]	
Cc1c(C(=O)/C=C/N(C)C)nnn1-c1ccc(Cl)cc1C#N	11.2 µM [rising, single point]	
Cc1[nH]c2ccccc2c1C(=O)/C=C/c1ccccc1	35.5 µM [falling, single point]	
CC1(C)Cc2c(c(N3CCOCC3)nc3sc4c(NCc5ccco5)nnnc4c23)CS1	6.51 µM [falling, single point]	
CC(C)(C)c1cc(C(=O)NNc2cccc(Cl)c2)n(Cc2ccccc2)n1	25.1 µM [falling, single point]	
CSc1ncccc1C(=O)Nc1nc2ccc(S(C)(=O)=O)cc2s1	35.5 µM [falling, single point]	
Cc1oc2c(Cl)c(Cl)c(O)c(CN(C)C)c2c1C(=O)c1ccc(Cl)cc1	35.5 µM [falling, single point]	20 µM [rising, partial curve, poor fit]
Cc1cnc(NC(=O)CSc2nnc(-c3ccc(Cl)cc3Cl)n2N)s1	0.731 µM [falling, single point]	
COc1ccc(-c2cc(C(=O)Nc3c(C)n(C)n(-c4ccccc4)c3=O)no2)cc1OC	8.91 µM [rising, partial curve, poor fit]	
COc1cc(NC(=O)c2csc(N)n2)cc(C(=O)Nc2cccc(C(F)(F)F)c2)c1	35.5 µM [falling, single point]	
CCOc1ccc(NC(=O)Nc2ccc(Br)cn2)cc1	0.891 µM [rising, partial curve, poor fit]	

Full records as entered above.
Cc1c(C(=O)/C=C/N(C)C)nnn1-c1ccc(Cl)cc1C#N in the list: AC50 [1]: 11.2 µM [rising, single point]
CN1CCC(NC(=O)Nc2ccc(Br)cc2)CC1 in the list: AC50 [1]: 2.82 µM [rising, full curve]
